Source: doi:10.1101/2021.01.27.428455 (bioRxiv, 2021)
Like-named read-outs stand apart in the source and are kept apart here. Results are given in words; binding and its absence hold for the method and conditions named. Some binding calls cover weakened binding; strength is not graded here. For some of these results: Where a sequence is shown, tags or fusion partners need not be part of it.

T1: Lactococcus lactis Csm2 with N-terminal His6-tag (Lactococcus lactis) (UniProt L0CFW2)
T1 sequence: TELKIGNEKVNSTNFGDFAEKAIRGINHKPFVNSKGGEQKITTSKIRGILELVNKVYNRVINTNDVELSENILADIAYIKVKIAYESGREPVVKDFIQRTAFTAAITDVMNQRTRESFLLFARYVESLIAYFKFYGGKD

T2: Lactococcus lactis Csm3 with N-terminal His6-tag (ΔCsm2-LlCsm) (Lactococcus lactis) (UniProt L0CEA3)
T2 sequence: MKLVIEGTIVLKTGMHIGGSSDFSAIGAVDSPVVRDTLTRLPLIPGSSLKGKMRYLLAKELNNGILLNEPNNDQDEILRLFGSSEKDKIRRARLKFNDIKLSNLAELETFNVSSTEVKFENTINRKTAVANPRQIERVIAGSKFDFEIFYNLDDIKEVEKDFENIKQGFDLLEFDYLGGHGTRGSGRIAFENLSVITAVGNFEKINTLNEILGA

T3: Lactococcus lactis Csm3 Asp30Ala (Lactococcus lactis, UniProt L0CEA3, Asp30Ala)
T3 sequence: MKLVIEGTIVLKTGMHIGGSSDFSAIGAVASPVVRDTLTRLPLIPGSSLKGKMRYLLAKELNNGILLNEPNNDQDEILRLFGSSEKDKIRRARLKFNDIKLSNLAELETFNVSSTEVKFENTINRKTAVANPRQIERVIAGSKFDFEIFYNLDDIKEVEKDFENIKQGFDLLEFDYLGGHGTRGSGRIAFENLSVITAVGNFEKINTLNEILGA


Tests used:
[1] = target: T1, Lactococcus lactis Csm2 with N-terminal His6-tag (Lactococcus lactis); test: co-purification
[2] = target: T2, Lactococcus lactis Csm3 with N-terminal His6-tag (ΔCsm2-LlCsm) (Lactococcus lactis); test: co-purification
[3] = target: T3, Lactococcus lactis Csm3 Asp30Ala; test: cryo-EM structure
[4] = target: T1, Lactococcus lactis Csm2 with N-terminal His6-tag (Lactococcus lactis); test: cryo-EM structure
[5] = target: T1, Lactococcus lactis Csm2 with N-terminal His6-tag (Lactococcus lactis); test: cryo-EM structure; remark: listed apart in the source

Binder	binding [1]	binding [2]	binding [3]	binding ([3]; record 2)	binding ([3]; record 3)	binding [4]	binding [5]
Lactococcus lactis Csm4 (protein, UniProt L0CFH1) MKIIKLYFESPVHFGEKRLSESKITFSADTLFSALMIEAVGLGKEDEFYQLASNNLVKFSDAFPFIDQYYYIPKPMFNLKLEKEDENPSKAFKKLLYVPIDSLEDYLSGGLDAYFERESFNLGKLALSEKVQQHDFKDSEPYNVGTFTFKENTGLYVLIEQTHPLLEELLENLQYSGIGGKRNSGYGKFKFEILEDSDIEDLFSAKGNRKILLSGALPKDAELEQALKNASYLLERRGGFVQSDTYATNLVKKQDLYVFKSGSTFENSFDGDIYQVGKKGNHPVYKYAKSFFLEVSV	binds	binds	binds	binds	binds		
Lactococcus lactis Csm5 (protein, UniProt L0CG31) MKKTYRVTLTALGPIFIGGGEKLKKYEYIFDKQKKVAHMIDHTKFTKYLLEKNLLDDFTSRVNSHFDLYDYLVNKKGIVFMPLVKYSVPVAQFRTEVKNRFGKPISSPPMNDLNTFVKDAFGRPYIPGSSLKGALRTAILNDLKEDTKENEVFAHLQVSDSETIDLENLKVYQKVDYSKTAKPLPLYRECLKPNTEITFTVSFDDEYLTLKKIQNALHKTYQHYYIKWLKGGKVGETLIKGVYDSHADELKKNTFALDQPSQNQGEIIYIGGGAGFVSKTLHYKSKNRDQARNDSFDILKQLFRTTYSKMRSVPDNVPVALKLAVETKTFNGRVTGKHYLEMGKARIKLEEL	binds		binds	binds	binds	binds	binds
Lactococcus lactis Csm3, wild type, untagged (protein, UniProt L0CEA3) MKLVIEGTIVLKTGMHIGGSSDFSAIGAVDSPVVRDTLTRLPLIPGSSLKGKMRYLLAKELNNGILLNEPNNDQDEILRLFGSSEKDKIRRARLKFNDIKLSNLAELETFNVSSTEVKFENTINRKTAVANPRQIERVIAGSKFDFEIFYNLDDIKEVEKDFENIKQGFDLLEFDYLGGHGTRGSGRIAFENLSVITAVGNFEKINTLNEILGA	binds						
Lactococcus lactis Csm6, co-expressed with the LlCsm complex (protein, UniProt L0CEJ8 1-409) MKILISAVGDTDPIRNFHDGPLLHIVRVYRPEKIVLVHSERSLTKHDKLVKALKSIKDYSPEIIQDGVVLPDAQVAIFDEMYDTVSSIVKKYISDDEIILNISSATPQIISAMFAVNRISDFNVTAVQVKTPQHKSNEGLRHDNQEDIDKLIETNLDNQSDYENRTLADTGMKFSQDLTKRNLKALIDNYDYQGALELLKKQKSFSNIKELRKKLTEISDTIKIQGMPDKIVKSKLSNQAKSALNSYLNIDRNHKQGNIAEVLIRVKSLVEFILEDYLNNHFLDVITYKDGKPFLNASKYPEILKKFQEDAEMRGKEYHSGYLSLPAYIGILKFFEPNHDLLKHIYKIQEINQDRNKVAHSLQAFDRKNLKKVSSAVFASKQILLASFDIDNHWFSFYEDLNQEIKKLL	no binding						
